Measurements: the supplement of paper PMC12067093, “Discovery and optimisation of a covalent ligand for TRIM25 and its application to targeted protein ubiquitination” (Chemical Science, 2025)
Some of the results follow.

Protein sequences, listed by entry. Tags and fused reporters are not part of them. Lines headed by an entry give the natural chain unless they say otherwise; changes in a name come on top.
UniProt O14727: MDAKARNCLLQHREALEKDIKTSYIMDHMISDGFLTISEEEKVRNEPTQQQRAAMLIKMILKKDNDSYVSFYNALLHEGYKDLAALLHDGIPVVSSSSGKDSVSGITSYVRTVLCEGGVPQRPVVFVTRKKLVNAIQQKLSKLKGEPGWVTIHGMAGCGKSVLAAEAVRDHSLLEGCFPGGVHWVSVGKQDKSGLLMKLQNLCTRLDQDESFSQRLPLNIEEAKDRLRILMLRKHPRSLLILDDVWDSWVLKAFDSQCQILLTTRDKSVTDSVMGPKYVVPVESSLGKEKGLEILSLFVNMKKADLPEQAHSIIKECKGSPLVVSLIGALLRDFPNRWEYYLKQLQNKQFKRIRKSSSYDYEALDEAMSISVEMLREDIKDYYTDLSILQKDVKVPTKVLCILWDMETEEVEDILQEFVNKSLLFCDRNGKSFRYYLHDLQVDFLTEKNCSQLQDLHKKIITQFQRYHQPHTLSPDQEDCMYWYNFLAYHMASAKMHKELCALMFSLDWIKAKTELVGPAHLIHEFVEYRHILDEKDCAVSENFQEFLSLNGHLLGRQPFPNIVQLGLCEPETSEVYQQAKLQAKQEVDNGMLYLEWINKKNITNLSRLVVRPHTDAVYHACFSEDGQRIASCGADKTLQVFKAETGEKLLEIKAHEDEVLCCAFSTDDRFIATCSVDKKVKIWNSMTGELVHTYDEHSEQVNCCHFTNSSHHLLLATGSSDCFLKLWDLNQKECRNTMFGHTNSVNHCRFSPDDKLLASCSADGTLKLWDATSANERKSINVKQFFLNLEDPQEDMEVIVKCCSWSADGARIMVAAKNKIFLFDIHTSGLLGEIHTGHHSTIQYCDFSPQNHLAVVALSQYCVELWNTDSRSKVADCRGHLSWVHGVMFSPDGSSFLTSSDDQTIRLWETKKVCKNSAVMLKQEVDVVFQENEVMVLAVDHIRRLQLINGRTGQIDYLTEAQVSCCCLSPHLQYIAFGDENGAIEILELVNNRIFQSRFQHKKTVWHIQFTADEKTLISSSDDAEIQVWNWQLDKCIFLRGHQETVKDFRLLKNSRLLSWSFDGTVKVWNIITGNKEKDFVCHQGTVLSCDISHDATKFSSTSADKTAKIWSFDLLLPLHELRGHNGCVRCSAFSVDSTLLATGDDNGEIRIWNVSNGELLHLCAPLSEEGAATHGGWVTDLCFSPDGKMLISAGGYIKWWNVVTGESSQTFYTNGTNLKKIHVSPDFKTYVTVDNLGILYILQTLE
UniProt P39687: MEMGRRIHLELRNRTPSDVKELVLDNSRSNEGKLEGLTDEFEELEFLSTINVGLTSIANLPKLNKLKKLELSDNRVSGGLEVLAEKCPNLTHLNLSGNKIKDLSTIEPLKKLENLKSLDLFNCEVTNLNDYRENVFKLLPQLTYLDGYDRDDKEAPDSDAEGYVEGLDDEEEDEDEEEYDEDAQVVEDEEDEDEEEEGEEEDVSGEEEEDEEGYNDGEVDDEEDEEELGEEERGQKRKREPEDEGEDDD
UniProt Q4KMQ2: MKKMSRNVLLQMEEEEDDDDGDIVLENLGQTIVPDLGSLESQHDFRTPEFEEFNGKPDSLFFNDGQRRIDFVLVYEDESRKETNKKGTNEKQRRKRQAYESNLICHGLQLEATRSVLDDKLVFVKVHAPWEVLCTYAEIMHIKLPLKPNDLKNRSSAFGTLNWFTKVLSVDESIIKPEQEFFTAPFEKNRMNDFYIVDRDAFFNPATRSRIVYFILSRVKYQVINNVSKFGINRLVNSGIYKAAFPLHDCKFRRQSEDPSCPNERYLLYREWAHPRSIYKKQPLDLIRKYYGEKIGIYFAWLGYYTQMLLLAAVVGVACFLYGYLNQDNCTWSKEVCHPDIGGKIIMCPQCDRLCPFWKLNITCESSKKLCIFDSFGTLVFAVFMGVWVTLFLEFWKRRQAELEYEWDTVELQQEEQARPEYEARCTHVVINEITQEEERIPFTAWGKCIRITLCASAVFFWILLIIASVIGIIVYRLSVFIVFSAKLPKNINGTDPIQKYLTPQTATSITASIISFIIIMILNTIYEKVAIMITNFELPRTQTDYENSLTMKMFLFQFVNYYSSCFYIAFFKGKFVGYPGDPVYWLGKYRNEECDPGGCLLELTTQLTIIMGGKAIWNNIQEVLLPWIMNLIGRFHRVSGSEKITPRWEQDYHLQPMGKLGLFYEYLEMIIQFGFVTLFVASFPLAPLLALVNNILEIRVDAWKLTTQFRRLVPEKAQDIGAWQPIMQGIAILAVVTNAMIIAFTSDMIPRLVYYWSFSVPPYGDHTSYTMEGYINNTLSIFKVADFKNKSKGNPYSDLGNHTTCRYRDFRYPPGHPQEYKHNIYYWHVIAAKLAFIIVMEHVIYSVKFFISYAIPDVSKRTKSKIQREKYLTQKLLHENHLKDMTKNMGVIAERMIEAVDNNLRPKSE
UniProt Q06481, whole entry, looked up: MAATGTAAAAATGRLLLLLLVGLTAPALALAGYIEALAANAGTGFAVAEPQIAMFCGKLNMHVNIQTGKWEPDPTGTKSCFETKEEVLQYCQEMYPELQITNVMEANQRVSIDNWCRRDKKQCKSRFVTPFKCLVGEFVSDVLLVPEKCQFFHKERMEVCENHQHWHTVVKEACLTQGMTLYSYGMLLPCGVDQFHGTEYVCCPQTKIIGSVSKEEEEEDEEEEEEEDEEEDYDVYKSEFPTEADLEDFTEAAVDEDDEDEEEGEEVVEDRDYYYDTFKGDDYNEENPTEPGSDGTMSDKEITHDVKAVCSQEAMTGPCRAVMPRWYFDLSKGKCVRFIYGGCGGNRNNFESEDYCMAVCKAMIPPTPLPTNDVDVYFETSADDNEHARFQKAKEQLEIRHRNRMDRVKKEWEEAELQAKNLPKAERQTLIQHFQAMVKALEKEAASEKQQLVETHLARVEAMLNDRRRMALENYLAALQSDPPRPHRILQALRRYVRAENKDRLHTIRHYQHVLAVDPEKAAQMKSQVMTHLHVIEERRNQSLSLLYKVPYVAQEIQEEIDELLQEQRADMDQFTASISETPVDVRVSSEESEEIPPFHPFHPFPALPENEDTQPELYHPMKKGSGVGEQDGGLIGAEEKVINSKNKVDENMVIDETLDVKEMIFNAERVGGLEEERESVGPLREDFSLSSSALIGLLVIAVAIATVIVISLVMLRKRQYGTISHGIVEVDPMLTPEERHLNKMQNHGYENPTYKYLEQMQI
UniProt O14617: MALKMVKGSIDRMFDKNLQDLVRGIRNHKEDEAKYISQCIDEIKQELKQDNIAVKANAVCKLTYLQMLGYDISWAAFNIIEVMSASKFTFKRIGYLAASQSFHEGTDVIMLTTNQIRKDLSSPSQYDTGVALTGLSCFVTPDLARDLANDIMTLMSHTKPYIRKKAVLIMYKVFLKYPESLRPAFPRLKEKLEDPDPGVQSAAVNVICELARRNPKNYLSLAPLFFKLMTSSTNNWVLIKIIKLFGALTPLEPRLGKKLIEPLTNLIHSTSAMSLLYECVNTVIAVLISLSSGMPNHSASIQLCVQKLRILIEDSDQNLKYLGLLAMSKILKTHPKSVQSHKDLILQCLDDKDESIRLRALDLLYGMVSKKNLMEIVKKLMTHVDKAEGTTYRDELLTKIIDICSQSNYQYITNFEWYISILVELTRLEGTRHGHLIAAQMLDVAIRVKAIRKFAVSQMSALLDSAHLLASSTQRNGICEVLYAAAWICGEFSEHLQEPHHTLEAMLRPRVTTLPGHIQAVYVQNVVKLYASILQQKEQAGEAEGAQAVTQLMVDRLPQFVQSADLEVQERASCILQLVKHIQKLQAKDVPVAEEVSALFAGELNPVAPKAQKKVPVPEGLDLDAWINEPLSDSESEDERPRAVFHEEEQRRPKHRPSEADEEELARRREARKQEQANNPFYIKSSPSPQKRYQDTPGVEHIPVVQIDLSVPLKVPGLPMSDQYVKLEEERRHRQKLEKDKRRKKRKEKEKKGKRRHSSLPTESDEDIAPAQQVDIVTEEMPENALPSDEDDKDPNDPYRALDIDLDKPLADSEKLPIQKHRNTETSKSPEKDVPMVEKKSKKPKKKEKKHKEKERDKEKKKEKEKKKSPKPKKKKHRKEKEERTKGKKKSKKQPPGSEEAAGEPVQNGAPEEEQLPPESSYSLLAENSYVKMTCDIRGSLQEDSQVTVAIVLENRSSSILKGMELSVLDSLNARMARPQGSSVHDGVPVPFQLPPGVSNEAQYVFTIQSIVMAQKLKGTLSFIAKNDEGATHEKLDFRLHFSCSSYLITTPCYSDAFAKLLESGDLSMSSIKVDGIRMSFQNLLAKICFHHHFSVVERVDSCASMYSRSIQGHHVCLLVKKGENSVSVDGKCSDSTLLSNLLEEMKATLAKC
UniProt P08133: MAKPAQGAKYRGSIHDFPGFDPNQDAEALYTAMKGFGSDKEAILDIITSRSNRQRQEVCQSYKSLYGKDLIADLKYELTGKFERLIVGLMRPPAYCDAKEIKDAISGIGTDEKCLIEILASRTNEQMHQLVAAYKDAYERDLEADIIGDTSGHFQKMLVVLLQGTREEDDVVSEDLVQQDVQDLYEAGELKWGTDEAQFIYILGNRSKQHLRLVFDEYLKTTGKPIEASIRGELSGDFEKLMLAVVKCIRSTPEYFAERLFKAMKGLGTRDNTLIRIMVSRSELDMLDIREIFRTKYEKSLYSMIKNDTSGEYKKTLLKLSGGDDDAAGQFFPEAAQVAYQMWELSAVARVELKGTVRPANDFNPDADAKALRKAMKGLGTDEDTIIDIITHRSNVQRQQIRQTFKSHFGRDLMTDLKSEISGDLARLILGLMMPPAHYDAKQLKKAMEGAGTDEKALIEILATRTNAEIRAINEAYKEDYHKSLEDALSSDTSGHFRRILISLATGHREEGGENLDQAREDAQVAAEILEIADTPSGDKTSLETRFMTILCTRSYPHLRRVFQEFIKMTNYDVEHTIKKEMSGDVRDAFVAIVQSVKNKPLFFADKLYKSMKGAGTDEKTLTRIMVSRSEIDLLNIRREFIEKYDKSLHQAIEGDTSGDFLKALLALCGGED
UniProt Q96NW4, whole entry, looked up: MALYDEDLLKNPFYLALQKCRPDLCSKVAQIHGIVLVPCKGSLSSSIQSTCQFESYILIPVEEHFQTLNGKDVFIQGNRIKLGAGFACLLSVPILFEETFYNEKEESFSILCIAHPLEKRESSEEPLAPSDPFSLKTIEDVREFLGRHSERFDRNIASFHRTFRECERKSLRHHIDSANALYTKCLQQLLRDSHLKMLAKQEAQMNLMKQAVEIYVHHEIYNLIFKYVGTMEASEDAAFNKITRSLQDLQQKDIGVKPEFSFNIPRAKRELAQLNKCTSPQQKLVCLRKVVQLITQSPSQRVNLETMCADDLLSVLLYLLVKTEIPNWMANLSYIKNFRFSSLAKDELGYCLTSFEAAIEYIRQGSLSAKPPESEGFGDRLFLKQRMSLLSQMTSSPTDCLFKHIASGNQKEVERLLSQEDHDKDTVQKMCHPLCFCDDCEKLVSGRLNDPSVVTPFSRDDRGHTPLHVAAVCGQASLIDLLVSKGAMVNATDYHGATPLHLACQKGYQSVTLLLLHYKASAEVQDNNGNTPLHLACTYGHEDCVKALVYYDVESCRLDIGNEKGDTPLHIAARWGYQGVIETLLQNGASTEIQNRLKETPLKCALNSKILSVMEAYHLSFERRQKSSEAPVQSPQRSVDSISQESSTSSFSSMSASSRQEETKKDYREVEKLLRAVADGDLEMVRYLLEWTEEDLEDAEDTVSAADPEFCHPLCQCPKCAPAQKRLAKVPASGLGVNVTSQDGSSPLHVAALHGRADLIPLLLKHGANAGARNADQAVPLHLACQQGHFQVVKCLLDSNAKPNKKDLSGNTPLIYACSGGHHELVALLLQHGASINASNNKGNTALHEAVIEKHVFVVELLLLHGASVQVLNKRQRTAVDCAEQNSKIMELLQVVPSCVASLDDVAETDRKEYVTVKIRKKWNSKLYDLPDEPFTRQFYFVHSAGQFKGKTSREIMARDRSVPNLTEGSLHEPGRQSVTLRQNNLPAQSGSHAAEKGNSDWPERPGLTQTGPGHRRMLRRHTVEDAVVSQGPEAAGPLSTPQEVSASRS
UniProt P04083: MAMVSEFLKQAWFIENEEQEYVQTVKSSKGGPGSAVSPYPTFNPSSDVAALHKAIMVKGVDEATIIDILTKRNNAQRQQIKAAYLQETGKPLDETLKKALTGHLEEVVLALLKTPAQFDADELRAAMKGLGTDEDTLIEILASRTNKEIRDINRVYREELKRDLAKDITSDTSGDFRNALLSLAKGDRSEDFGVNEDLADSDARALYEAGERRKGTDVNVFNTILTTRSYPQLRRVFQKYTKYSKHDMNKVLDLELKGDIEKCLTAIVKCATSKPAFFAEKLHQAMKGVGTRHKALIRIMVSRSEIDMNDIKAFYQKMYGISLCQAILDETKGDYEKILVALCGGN

Compound: CC1Cc2ccccc2N1C(=O)C1CCCN(C1)C(=O)CCl (mixture of isomers) [TRIM25 ligand 11 (diastereomer mixture)]
Test: probe-labelled cysteine peptide fold change vs DMSO (competition) (log2 fold change); higher = less target engagement (more negative = stronger competition)
Settings: THP-1, incubation time: 4 h
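Further: competitive chemoproteomic profiling in live THP-1 cells with an iodoacetamide desthiobiotin (IA-DTB) probe, comparing probe-labelled peptide intensities in compound-treated cells against DMSO-treated controls.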

| Target | probe-labelled cysteine peptide fold change (10 µM) | probe-labelled cysteine peptide fold change (50 µM) |
| --- | --- | --- |
| APIP_Q96GX9_147_CTSGGYYR (UniProt Q96GX9) | 0.156 | 0.162 |
| APAF1_O14727_1083_DFVCHQGTVLSCDISHDATK (UniProt O14727) | 0.104 | 0.153 |
| APAF1_O14727_450_NCSQLQDLHK (UniProt O14727) | 0.21 | 0.0548 |
| ANP32A_P39687_87_CPNLTHLNLSGNK (UniProt P39687) | -0.175 | -0.227 |
| ANO6_Q4KMQ2_261_RQSEDPSCPNER (UniProt Q4KMQ2) | -0.0531 | -0.169 |
| APLP2_Q06481_80_SCFETK (UniProt Q06481) | 0.0295 | 0.0911 |
| ANO6_Q4KMQ2_261_QSEDPSCPNER (UniProt Q4KMQ2) | -0.0911 | -0.0255 |
| AP3D1_O14617_348_DLILQCLDDKDESIR (UniProt O14617) | 0.0293 | 0.136 |
| ANPEP_P15144_834_AALACSK (UniProt P15144) | 0.0828 | 0.356 |
| ANKRD28_O15084_472_GCTPLHYAATSDTDGK (UniProt O15084) | 0.0453 | 0.00836 |
| AP2B1_P63010_565_PLISEETDLIEPTLLDELICHIGSLASVYHKPPNAFVEGSHGIHR (UniProt P63010) | -0.139 | -0.115 |
| APAF1_O14727_675_AHEDEVLCCAFSTDDRFIATCSVDK (UniProt O14727) | -0.0457 | 0.0759 |
| AP3D1_O14617_208_EKLEDPDPGVQSAAVNVICELAR (UniProt O14617) | -0.0536 | 0.0308 |
| ANKRD11_Q6UB99_1339_ESACLPEK (UniProt Q6UB99) | 0.0722 | -0.048 |
| ANXA6_P08133_96_LIVGLMRPPAYCDAK (UniProt P08133) | -0.00557 | 0.044 |
| AP1G1_O43747_160_AALCAVHVIR (UniProt O43747) | 0.0228 | 0.101 |
| AP1G2_O75843_354_HRPTVVECLR (UniProt O75843) | -0.0584 | -0.0218 |
| ANKRD27_Q96NW4_899_IMELLQVVPSCVASLDDVAETDRK (UniProt Q96NW4) | 0.106 | -0.0858 |
| ANLN_Q9NQW6_978_CQVNSSVEER (UniProt Q9NQW6) | 0.215 | 0.247 |
| ANXA1_P04083_263_CLTAIVK (UniProt P04083) | -0.0305 | -0.0899 |
| ANKHD1_Q8IWZ3_615_AGHLCTVQFLISK (UniProt Q8IWZ3) | -0.0157 | -0.126 |

| Target | probe-labelled cysteine peptide fold change (10 µM) | probe-labelled cysteine peptide fold change (50 µM) |
| --- | --- | --- |
| ANO6_Q4KMQ2_426_CTHVVINEITQEEER (UniProt Q4KMQ2) | 0.253 | -0.0102 |
| ANKRD27_Q96NW4_720_CAPAQK (UniProt Q96NW4) | 0.0291 | -0.159 |
| ANKRD50_Q9ULJ7_161_LRDPAVQSLLQPGECER (UniProt Q9ULJ7) | -0.00261 | 0.0664 |
| ANXA7_P20073_298_CYQSEFGR (UniProt P20073) | -0.064 | 0.0537 |
| AP5Z1_O43299_546_LAPLHQLLQPMAGCAR (UniProt O43299) | 0.158 | 0.052 |
| ANKLE1_Q8NAG6_29_CGADPNLVLEDGAAAVHLAAGAR (UniProt Q8NAG6) | 0.0123 | 0.1 |
| ANKRD49_Q8WVL7_149_AAYSGHLDIVQELIAQGADVHAVTVDGWTPLHSACK (UniProt Q8WVL7) | -0.25 | 0.131 |
| ANXA1_P04083_324_MYGISLCQAILDETK (UniProt P04083) | 0.0699 | 0.0579 |
| AP3B1_O00203_507_ASILWLIGENCER (UniProt O00203) | 0.0898 | 0.0982 |
| ANO10_Q9NW15_92_ECNDNTMR (UniProt Q9NW15) | 0.0463 | 0.043 |
| APAF1_O14727_258_AFDSQCQILLTTR (UniProt O14727) | 0.17 | 0.0371 |
| AP2B1_P63010_144_TAAVCVAK (UniProt P63010) | -0.0906 | -0.016 |
| ANKMY2_Q8IV38_341_MVIYCDQTCQK (UniProt Q8IV38) | -0.00689 | 0.0152 |
| AP3M1_Q9Y2T2_236_LLDDVSFHPCIR (UniProt Q9Y2T2) | 0.0679 | 0.0303 |
| ANKRD54_Q6NXT1_185_DGLGNTPLHLAACTNHVPVITTLLR (UniProt Q6NXT1) | -0.041 | -0.0884 |
| ANO6_Q4KMQ2_105_RQAYESNLICHGLQLEATR (UniProt Q4KMQ2) | -0.0665 | 0.106 |
| ANKRD44_Q8N8A2_914_DLNTPLHLACSK (UniProt Q8N8A2) | -0.0625 | -0.0939 |
| APOBEC3B_Q9UH17_354_QGCPFQPWDGLEEHSQALSGR (UniProt Q9UH17) | 0.0241 | 0.188 |
| AP2B1_P63010_241_DDREAQSICER (UniProt P63010) | -0.0581 | -0.0343 |
| ANXA2_P07355_262_GDLENAFLNLVQCIQNK (UniProt P07355) | 0.248 | 0.417 |
| APLP2_Q06481_160_MEVCENHQHWHTVVK (UniProt Q06481) | 0.00247 | -0.0723 |
